# Record: PubChem BioAssay AID1224830 (NIAID, 2016)
# Purpose: 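Regulators of TLR4 signalling towards TNF-alpha in macrophage-like cells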 (primary screen)
# Cell system: human THP-1 monocytic leukaemia cells, TNF dual-luciferase reporter clone, PMA-differentiated to macrophage-like cells
# Knock-down reagent: siRNA pool against human genes, 50 nM
# Timing: LPS for 4 h, given about 3 days after siRNA transfection
# Treatment: bacterial LPS (TLR4 ligand), 10 ng/ml
# Read-out: 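TNF firefly reporter luminescence divided by renilla, normalised to the plate median, then turned into a robust z-score for each replicate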
# Reading the numbers: TNF reporter robust z-score: higher = stronger TNF reporter response to LPS
# Rule for the call: 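Each well counts as active if its z-score is over 2.8 or under -1.5; controls are left without a call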
# Shown is an unselected part of about 18,000 reagents. Of all reagents, about 2,900 (16%) are marked active. 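Calls are made per well; low scores hint the gene aids the LPS response, high scores that it dampens it.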 Repeated entries: four replicate wells of each siRNA pool. No sequences are given here.
Gene,PubChem SID,TNF reporter robust z-score,outcome
SHROOM1 (shroom family member 1),SID315461975,-1.25,inactive
SHROOM1 (shroom family member 1),SID315461975,-1.05,inactive
SHROOM1 (shroom family member 1),SID315461975,-1.38,inactive
SHROOM1 (shroom family member 1),SID315461975,-0.92,inactive
INSM2 (INSM transcriptional repressor 2),SID315460462,0.29,inactive
INSM2 (INSM transcriptional repressor 2),SID315460462,0.37,inactive
INSM2 (INSM transcriptional repressor 2),SID315460462,-0.32,inactive
INSM2 (INSM transcriptional repressor 2),SID315460462,0.71,inactive
SOAT2 (sterol O-acyltransferase 2),SID315452556,-0.64,inactive
SOAT2 (sterol O-acyltransferase 2),SID315452556,-0.76,inactive
SOAT2 (sterol O-acyltransferase 2),SID315452556,-1.53,active
SOAT2 (sterol O-acyltransferase 2),SID315452556,-0.48,inactive
"RBBP9 (RB binding protein 9, serine hydrolase)",SID315454327,-0.92,inactive
"RBBP9 (RB binding protein 9, serine hydrolase)",SID315454327,-0.85,inactive
"RBBP9 (RB binding protein 9, serine hydrolase)",SID315454327,-1.03,inactive
"RBBP9 (RB binding protein 9, serine hydrolase)",SID315454327,-1.31,inactive
NKG7 (natural killer cell granule protein 7),SID315450254,0.44,inactive
NKG7 (natural killer cell granule protein 7),SID315450254,-0.33,inactive
NKG7 (natural killer cell granule protein 7),SID315450254,-0.16,inactive
NKG7 (natural killer cell granule protein 7),SID315450254,-0.95,inactive
FBXO25 (F-box protein 25),SID315455742,-1.09,inactive
FBXO25 (F-box protein 25),SID315455742,2.02,inactive
FBXO25 (F-box protein 25),SID315455742,1.59,inactive
FBXO25 (F-box protein 25),SID315455742,1,inactive
ZNF576 (zinc finger protein 576),SID315459249,-0.92,inactive
ZNF576 (zinc finger protein 576),SID315459249,-1.36,inactive
ZNF576 (zinc finger protein 576),SID315459249,-0.8,inactive
ZNF576 (zinc finger protein 576),SID315459249,-0.97,inactive
SURF1 (SURF1 cytochrome c oxidase assembly factor),SID315451710,-0.51,inactive
SURF1 (SURF1 cytochrome c oxidase assembly factor),SID315451710,0.03,inactive
SURF1 (SURF1 cytochrome c oxidase assembly factor),SID315451710,-0.59,inactive
SURF1 (SURF1 cytochrome c oxidase assembly factor),SID315451710,-1,inactive
"QKI (QKI, KH domain containing RNA binding)",SID315453289,1.7,inactive
"QKI (QKI, KH domain containing RNA binding)",SID315453289,1.01,inactive
"QKI (QKI, KH domain containing RNA binding)",SID315453289,-0.82,inactive
"QKI (QKI, KH domain containing RNA binding)",SID315453289,-0.96,inactive

Continued.
Gene,PubChem SID,TNF reporter robust z-score,outcome
NIPAL2 (NIPA like domain containing 2),SID315459481,2.05,inactive
NIPAL2 (NIPA like domain containing 2),SID315459481,0.69,inactive
NIPAL2 (NIPA like domain containing 2),SID315459481,0.26,inactive
NIPAL2 (NIPA like domain containing 2),SID315459481,-1.18,inactive
GBP1 (guanylate binding protein 1),SID315448852,-0.5,inactive
GBP1 (guanylate binding protein 1),SID315448852,-0.34,inactive
GBP1 (guanylate binding protein 1),SID315448852,-0.62,inactive
GBP1 (guanylate binding protein 1),SID315448852,-0.28,inactive
OLFM4 (olfactomedin 4),SID315454192,-0.87,inactive
OLFM4 (olfactomedin 4),SID315454192,-0.17,inactive
OLFM4 (olfactomedin 4),SID315454192,-0.63,inactive
OLFM4 (olfactomedin 4),SID315454192,0.14,inactive
MED18 (mediator complex subunit 18),SID315457165,-0.76,inactive
MED18 (mediator complex subunit 18),SID315457165,0.61,inactive
MED18 (mediator complex subunit 18),SID315457165,0.26,inactive
MED18 (mediator complex subunit 18),SID315457165,-0.01,inactive
OXCT1 (3-oxoacid CoA-transferase 1),SID315450387,-0.21,inactive
OXCT1 (3-oxoacid CoA-transferase 1),SID315450387,-0.22,inactive
OXCT1 (3-oxoacid CoA-transferase 1),SID315450387,-0.86,inactive
OXCT1 (3-oxoacid CoA-transferase 1),SID315450387,-0.36,inactive
MPZL2 (myelin protein zero like 2),SID315453903,1.51,inactive
MPZL2 (myelin protein zero like 2),SID315453903,0.04,inactive
MPZL2 (myelin protein zero like 2),SID315453903,0.34,inactive
MPZL2 (myelin protein zero like 2),SID315453903,1.69,inactive
POU3F4 (POU class 3 homeobox 4),SID315450713,0.36,inactive
POU3F4 (POU class 3 homeobox 4),SID315450713,0.99,inactive
POU3F4 (POU class 3 homeobox 4),SID315450713,0.07,inactive
POU3F4 (POU class 3 homeobox 4),SID315450713,1.71,inactive
COX5B (cytochrome c oxidase subunit 5B),SID315448047,-0.72,inactive
COX5B (cytochrome c oxidase subunit 5B),SID315448047,-0.31,inactive
COX5B (cytochrome c oxidase subunit 5B),SID315448047,0.2,inactive
COX5B (cytochrome c oxidase subunit 5B),SID315448047,0.65,inactive
INSYN2A (inhibitory synaptic factor 2A),SID315465072,0.99,inactive
INSYN2A (inhibitory synaptic factor 2A),SID315465072,1.49,inactive
INSYN2A (inhibitory synaptic factor 2A),SID315465072,0.62,inactive
INSYN2A (inhibitory synaptic factor 2A),SID315465072,1.33,inactive
TM9SF3 (transmembrane 9 superfamily member 3),SID315458133,-0.87,inactive
TM9SF3 (transmembrane 9 superfamily member 3),SID315458133,-0.81,inactive
TM9SF3 (transmembrane 9 superfamily member 3),SID315458133,0.08,inactive
TM9SF3 (transmembrane 9 superfamily member 3),SID315458133,0.45,inactive
